Measurements taken from article PMC10234869.
These are yes or no findings as the source states them, for the method shown. In cells and extracts the contact can be indirect. Some entries that bind do so weakly or less than the wild type. Sequences can lack the tags named with a protein.

T1: Signal Peptide Peptidase-like 2c, C-terminally myc-tagged (SPPL2c-myc) (murine) (UniProt A2A6C4)
T1 sequence: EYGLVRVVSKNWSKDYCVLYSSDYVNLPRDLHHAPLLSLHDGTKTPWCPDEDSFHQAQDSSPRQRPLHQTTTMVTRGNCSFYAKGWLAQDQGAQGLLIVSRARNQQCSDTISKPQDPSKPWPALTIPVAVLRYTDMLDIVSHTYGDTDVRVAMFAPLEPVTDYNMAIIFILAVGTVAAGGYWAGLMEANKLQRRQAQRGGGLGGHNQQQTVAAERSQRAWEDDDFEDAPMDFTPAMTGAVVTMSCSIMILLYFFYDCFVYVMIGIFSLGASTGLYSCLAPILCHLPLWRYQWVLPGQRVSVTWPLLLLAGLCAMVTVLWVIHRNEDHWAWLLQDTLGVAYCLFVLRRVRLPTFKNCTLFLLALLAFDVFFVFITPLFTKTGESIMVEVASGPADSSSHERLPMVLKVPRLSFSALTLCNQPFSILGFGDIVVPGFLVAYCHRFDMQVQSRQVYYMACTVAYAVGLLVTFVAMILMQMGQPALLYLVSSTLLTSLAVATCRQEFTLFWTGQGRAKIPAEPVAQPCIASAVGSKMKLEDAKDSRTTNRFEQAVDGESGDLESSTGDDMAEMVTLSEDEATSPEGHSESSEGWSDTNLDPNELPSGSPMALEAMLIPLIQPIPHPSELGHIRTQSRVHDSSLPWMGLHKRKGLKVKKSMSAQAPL

T2: Frey regulator of sperm-oocyte fusion 1 with C-terminal 3xFLAG tag (Frey1-3xFLAG), wild type (murine) (UniProt Q8CF31)
T2 sequence: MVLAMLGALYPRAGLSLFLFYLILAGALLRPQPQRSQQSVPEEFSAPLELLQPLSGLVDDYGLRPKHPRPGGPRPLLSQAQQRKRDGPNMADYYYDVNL

T3: Frey1-3xFLAG R30K (murine) (UniProt Q8CF31)
T3 sequence: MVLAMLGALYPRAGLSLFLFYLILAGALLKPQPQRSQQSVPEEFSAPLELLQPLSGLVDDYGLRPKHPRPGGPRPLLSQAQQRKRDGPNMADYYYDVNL


Assays:
[1] = biological target: T1, Signal Peptide Peptidase-like 2c, C-terminally myc-tagged (SPPL2c-myc) (murine); experiment: co-IP; HA-RAMP4-2 or Frey1-3xFLAG co-precipitated with C-terminally myc-tagged murine SPPL2c (Suppl. Figure 1B); precipitating antibody not told in the text shown
[2] = biological target: T2, Frey regulator of sperm-oocyte fusion 1 with C-terminal 3xFLAG tag (Frey1-3xFLAG), wild type (murine); experiment: co-IP; anti-FLAG M2 and Protein G agarose from 0.5% CHAPSO lysates (1 mg in 500 µl, overnight, 4 °C) of transiently transfected HEK293T cells; four washes with CHAPSO buffer; eluates blotted; co-precipitated SPPL2c divided by the precipitated Frey1 or PLN variant and normalised to wild-type Frey1
[3] = biological target: T3, Frey1-3xFLAG R30K (murine); experiment: as above
[4] = biological target: T2, Frey regulator of sperm-oocyte fusion 1 with C-terminal 3xFLAG tag (Frey1-3xFLAG), wild type (murine); experiment: co-IP; competitive co-immunoprecipitation pulling on Frey1-3xFLAG or its TMD mutant from transiently transfected HEK cells, with or without co-expressed HA-HO-1 as model substrate; SPPL2c blotted

binding [1] | binding [2] | binding [3] | binding [4] | Binder
binds |  |  |  | Frey regulator of sperm-oocyte fusion 1 with C-terminal 3xFLAG tag (Frey1-3xFLAG), wild type (protein, UniProt Q8CF31 1-99) MVLAMLGALYPRAGLSLFLFYLILAGALLRPQPQRSQQSVPEEFSAPLELLQPLSGLVDDYGLRPKHPRPGGPRPLLSQAQQRKRDGPNMADYYYDVNL
 | no binding |  |  | HA-tagged heme oxygenase 1 (HA-HO-1) (protein, UniProt P14901 1-289) MERPQPDSMPQDLSEALKEATKEVHIQAENAEFMKNFQKGQVSREGFKLVMASLYHIYTALEEEIERNKQNPVYAPLYFPEELHRRAALEQDMAFWYGPHWQEIIPCTPATQHYVKRLHEVGRTHPELLVAHAYTRYLGDLSGGQVLKKIAQKAMALPSSGEGLAFFTFPNIDSPTKFKQLYRARMNTLEMTPEVKHRVTEEAKTAFLLNIELFEELQVMLTEEHKDQSPSQMASLRQRPASLVQDTAPAETPRGKPQISTSSSQTPLLQWVLTLSFLLATVAVGIYAM
 | binds | binds | binds | Signal Peptide Peptidase-like 2c, C-terminally myc-tagged (SPPL2c-myc) (enzyme, UniProt A2A6C4 29-690) EYGLVRVVSKNWSKDYCVLYSSDYVNLPRDLHHAPLLSLHDGTKTPWCPDEDSFHQAQDSSPRQRPLHQTTTMVTRGNCSFYAKGWLAQDQGAQGLLIVSRARNQQCSDTISKPQDPSKPWPALTIPVAVLRYTDMLDIVSHTYGDTDVRVAMFAPLEPVTDYNMAIIFILAVGTVAAGGYWAGLMEANKLQRRQAQRGGGLGGHNQQQTVAAERSQRAWEDDDFEDAPMDFTPAMTGAVVTMSCSIMILLYFFYDCFVYVMIGIFSLGASTGLYSCLAPILCHLPLWRYQWVLPGQRVSVTWPLLLLAGLCAMVTVLWVIHRNEDHWAWLLQDTLGVAYCLFVLRRVRLPTFKNCTLFLLALLAFDVFFVFITPLFTKTGESIMVEVASGPADSSSHERLPMVLKVPRLSFSALTLCNQPFSILGFGDIVVPGFLVAYCHRFDMQVQSRQVYYMACTVAYAVGLLVTFVAMILMQMGQPALLYLVSSTLLTSLAVATCRQEFTLFWTGQGRAKIPAEPVAQPCIASAVGSKMKLEDAKDSRTTNRFEQAVDGESGDLESSTGDDMAEMVTLSEDEATSPEGHSESSEGWSDTNLDPNELPSGSPMALEAMLIPLIQPIPHPSELGHIRTQSRVHDSSLPWMGLHKRKGLKVKKSMSAQAPL
